# From PubChem BioAssay AID330 (DTP/NCI, 2004)
# The list is a part of this screen's results and no random one: it is rich in T/C values a quarter to a half above the control, in often repeated tests (any T/C) and in doses without a T/C. Further doses and runs are listed elsewhere. T/C: endpoint of the treated group in % of that of the vehicle group. Some entries give survivors of the animals treated and no T/C: the source holds a T/C of zero for them, seemingly a mark for toxic or unscored doses. Some survivor counts are full or nearly so, which does not show that the dose was tolerated: the source hardly ever lists a survival T/C far under the control, and the zero likely stands for such cases as well. Counts of survivors are from the toxicity check (mostly the fifth day) where no day follows; animals may have died later. Schedule codes are those of the source, read here as Q, the interval in days (D) or hours (H), X, the number of doses. Some molecules as drawn cover several salts, stereoisomers or complexes of the source; a dose is that of the sample tested. For survival time, the PubChem record calls one and a half times the control and up active, and a quarter to a half above the control has no call in these data; cut-offs in other NCI protocols can differ. Some T/C values carry the count of animals alive at the toxicity check (mostly the fifth day); where none is given, no animal had died by that day. Some entries hold several experiments; the values are given in rising order. Additions like (4×) count equal records among those shown.
# Tested on: P388 leukemia ip, CD2F1 mice, survival T/C
# Assay: NCI In Vivo Anticancer Drug Screen. Data for tumor model P388 Leukemia (intraperitoneal) in CD2F1 (CDF1) mice
# Settings: T/C endpoint: median survival time, higher T/C = longer survival
# [1] = dose: 200.0 mg/kg/injection, schedule: Q01DX005 (ip), vehicle: saline with Tween-80
# [2] = dose: 100.0 mg/kg/injection, schedule: Q01DX005 (ip), vehicle: Klucel (hydroxypropylcellulose) (HPC)
# [3] = dose: 200.0 mg/kg/injection, schedule: Q01DX005 (ip), vehicle: Klucel (hydroxypropylcellulose) (HPC)
smiles,measurement,setting,value
O=C1c2c(Cl)c(Cl)c(Cl)c(Cl)c2C(=O)N1O,survivor count,"dose: 50.0 mg/kg/injection, schedule: Q01DX009 (ip), vehicle: saline with Tween-80",6 of 6
same,survivor count,"dose: 100.0 mg/kg/injection, schedule: Q01DX009 (ip), vehicle: saline with Tween-80",6 of 6
same,survivor count,"dose: 200.0 mg/kg/injection, schedule: Q01DX009 (ip), vehicle: saline with Tween-80",6 of 6
CC(CN(C)C)C(/C=C/c1ccc(Cl)cc1)=N\NC(=O)c1ccccc1 (stereo not drawn),survivor count,"dose: 240.0 mg/kg/injection, schedule: Q01DX005 (ip), vehicle: saline",0 of 6
CNCCNc1ccc(C)c2sc3ccc(O)cc3c(=O)c12,survivor count,"dose: 50.0 mg/kg/injection, schedule: Q01DX009 (ip), vehicle: Klucel (hydroxypropylcellulose) (HPC)",2 of 6
same,survivor count,"dose: 100.0 mg/kg/injection, schedule: Q01DX009 (ip), vehicle: Klucel (hydroxypropylcellulose) (HPC)",5 of 6
CCCCCCCCCCN(CCCCCCCCCC)CC(O)c1ccc2nc3c(cc2c1)CCCC3 (stereo not drawn),survivor count,"dose: 100.0 mg/kg/injection, schedule: Q01DX005 (ip), vehicle: saline with Tween-80",0 of 5
same,survivor count,[1],0 of 5
O=Cc1ccccc1/C=C/C(=O)/C=C/c1ccccc1C=O,survivor count,[2],1 of 5
same,survivor count,[3],0 of 5
[O-][n+]1c2ccccc2cc2c1c1ccccc1n2O,survivor count,[2],2 of 6
same,survivor count,[3],0 of 6
Cc1cn(CCCOc2c3occc3cc3ccc(=O)oc23)c(=O)[nH]c1=O,survivor count,[2],4 of 6
same,survivor count,[3],6 of 6
O=[N+]([O-])c1cc(Cl)ccc1S(=O)(=O)CCCl,survivor count,"dose: 100.0 mg/kg/injection, schedule: Q04DX002 (ip), vehicle: Klucel (hydroxypropylcellulose) (HPC)",0 of 6
same,survivor count,"dose: 200.0 mg/kg/injection, schedule: Q04DX002 (ip), vehicle: Klucel (hydroxypropylcellulose) (HPC)",0 of 6
same,survivor count,"dose: 400.0 mg/kg/injection, schedule: Q04DX002 (ip), vehicle: Klucel (hydroxypropylcellulose) (HPC)",0 of 6
COc1ccc2[nH]c3ccc4cc[n+](CCN5CCC(C6CCN(CC[n+]7ccc8ccc9[nH]c%10ccc(OC)cc%10c9c8c7)CC6)CC5)cc4c3c2c1,T/C,"dose: 4.0 mg/kg/injection, schedule: Q01DX005 (ip), vehicle: water",144 % of control
same,survivor count,"dose: 64.0 mg/kg/injection, schedule: Q01DX005 (ip), vehicle: water",0 of 6
same,T/C,[2],141 % of control
same,survivor count,[2],0 of 10
same,survivor count,"dose: 100.0 mg/kg/injection, schedule: Q01DX005 (ip), vehicle: other",6 of 6
same,survivor count,[3],6 of 6
same,survivor count,"dose: 200.0 mg/kg/injection, schedule: Q01DX005 (ip), vehicle: other",4 of 6
CN(C)C1C2(C)CCC(C2)C1(C)C (stereo not drawn),survivor count,[1],0 of 6
O=C(O)c1cc(I)cc(I)c1,survivor count,"dose: 300.0 mg/kg/injection, schedule: Q01DX009 (ip), vehicle: saline with Tween-80",3 of 6
COc1ccc(O)cc1,survivor count,"dose: 400.0 mg/kg/injection, schedule: Q01DX001 (ip), vehicle: saline with Tween-80",2 of 6
CCCCOP(=O)(N1CC1(C)C)N1CC1(C)C (stereo not drawn),T/C,"dose: 8.0 mg/kg/injection, schedule: Q01DX009 (ip), vehicle: saline",144 % of control
same,T/C,"dose: 16.0 mg/kg/injection, schedule: Q01DX009 (ip), vehicle: saline",130 % of control
same,T/C,"dose: 20.0 mg/kg/injection, schedule: Q01DX001 (ip), vehicle: saline",126 % of control
same,T/C,"dose: 40.0 mg/kg/injection, schedule: Q01DX001 (ip), vehicle: saline",135 % of control
same,T/C,"dose: 80.0 mg/kg/injection, schedule: Q01DX001 (ip), vehicle: saline",128 % of control
O=C(NO)c1cc(O)c(O)c(O)c1,T/C,"dose: 100.0 mg/kg/injection, schedule: Q01DX005 (ip), vehicle: distilled water + Tween-80",145 % of control
same,survivor count,"dose: 400.0 mg/kg/injection, schedule: Q01DX005 (ip), vehicle: distilled water + Tween-80",4 of 6
same,survivor count,"dose: 400.0 mg/kg/injection, schedule: Q01DX009 (ip), vehicle: distilled water + Tween-80",2 of 5
same,survivor count,"dose: 800.0 mg/kg/injection, schedule: Q01DX005 (ip), vehicle: distilled water + Tween-80",6 of 6
same,survivor count,"dose: 800.0 mg/kg/injection, schedule: Q01DX009 (ip), vehicle: distilled water + Tween-80",1 of 5
CCn1c(=O)c(C#N)c2n(CC)c3ccccc3n2c1=O,survivor count,"dose: 60.0 mg/kg/injection, schedule: Q01DX005 (ip), vehicle: saline with Tween-80",6 of 6
same,survivor count,"dose: 120.0 mg/kg/injection, schedule: Q01DX005 (ip), vehicle: saline with Tween-80",6 of 6
same,survivor count,"dose: 240.0 mg/kg/injection, schedule: Q01DX005 (ip), vehicle: saline with Tween-80",6 of 6
COC(C(=O)C(O)C(C)O)C1Cc2cc3cc(OC4CC(OC(C)=O)C(OC5CC(O)C(OC)C(C)O5)C(C)O4)cc(O)c3c(O)c2C(=O)C1OC1CC(OC2CC(OC3CC(C)(O)C(OC(=O)C(C)C)C(C)O3)C(O)C(C)O2)C(O)C(C)O1 (stereo not drawn),T/C,"dose: 0.02 mg/kg/injection, schedule: Q01DX010 (ip), vehicle: saline",125 % of control
same,T/C,"dose: 0.05 mg/kg/injection, schedule: Q01DX010 (ip), vehicle: saline",125 and 130 % of control
same,T/C,"dose: 0.1 mg/kg/injection, schedule: Q01DX010 (ip), vehicle: saline","120, 130, 130 [5 of 6 alive], 135, 145 % of control"
same,T/C,"dose: 0.2 mg/kg/injection, schedule: Q01DX010 (ip), vehicle: saline","130, 145 (3×), 150 % of control [5 of 6 alive]"
same,T/C,"dose: 0.4 mg/kg/injection, schedule: Q01DX010 (ip), vehicle: saline","135, 150, 165 (2×), 170 % of control"
same,T/C,"dose: 0.8 mg/kg/injection, schedule: Q01DX010 (ip), vehicle: saline","140 [5 of 6 alive], 150, 160, 180 % of control"
same,T/C,"dose: 1.6 mg/kg/injection, schedule: Q01DX010 (ip), vehicle: saline","100, 190, 190 % of control [5 of 6 alive] (2×)"
same,survivor count,"dose: 3.2 mg/kg/injection, schedule: Q01DX010 (ip), vehicle: saline",1 of 6
